Measured values as given in article PMC8479171.

T1: Gimap5 (GTPase of immunity-associated protein 5), over-expressed from pcDNA3.1-Gimap5/3×Flag-EGFP (human) (UniProt Q96F15)
T1 sequence: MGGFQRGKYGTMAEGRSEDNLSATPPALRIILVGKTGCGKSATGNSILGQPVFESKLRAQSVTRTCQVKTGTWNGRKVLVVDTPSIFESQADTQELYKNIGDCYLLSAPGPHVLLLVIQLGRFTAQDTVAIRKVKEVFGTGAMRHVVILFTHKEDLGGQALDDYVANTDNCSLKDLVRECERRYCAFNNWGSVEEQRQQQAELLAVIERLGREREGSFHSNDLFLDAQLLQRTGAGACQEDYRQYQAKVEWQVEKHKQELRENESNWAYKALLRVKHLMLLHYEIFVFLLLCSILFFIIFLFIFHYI

B1: breast cancer anti-estrogen resistance protein 1 (protein, UniProt P56945 1-870)
chain: MNHLNVLAKALYDNVAESPDELSFRKGDIMTVLEQDTQGLDGWWLCSLHGRQGIVPGNRLKILVGMYDKKPAGPGPGPPATPAQPQPGLHAPAPPASQYTPMLPNTYQPQPDSVYLVPTPSKAQQGLYQVPGPSPQFQSPPAKQTSTFSKQTPHHPFPSPATDLYQVPPGPGGPAQDIYQVPPSAGMGHDIYQVPPSMDTRSWEGTKPPAKVVVPTRVGQGYVYEAAQPEQDEYDIPRHLLAPGPQDIYDVPPVRGLLPSQYGQEVYDTPPMAVKGPNGRDPLLEVYDVPPSVEKGLPPSNHHAVYDVPPSVSKDVPDGPLLREETYDVPPAFAKAKPFDPARTPLVLAAPPPDSPPAEDVYDVPPPAPDLYDVPPGLRRPGPGTLYDVPRERVLPPEVADGGVVDSGVYAVPPPAEREAPAEGKRLSASSTGSTRSSQSASSLEVAGPGREPLELEVAVEALARLQQGVSATVAHLLDLAGSAGATGSWRSPSEPQEPLVQDLQAAVAAVQSAVHELLEFARSAVGNAAHTSDRALHAKLSRQLQKMEDVHQTLVAHGQALDAGRGGSGATLEDLDRLVACSRAVPEDAKQLASFLHGNASLLFRRTKATAPGPEGGGTLHPNPTDKTSSIQSRPLPSPPKFTSQDSPDGQYENSEGGWMEDYDYVHLQGKEEFEKTQKELLEKGSITRQGKSQLELQQLKQFERLEQEVSRPIDHDLANWTPAQPLAPGRTGGLGPSDRQLLLFYLEQCEANLTTLTNAVDAFFTAVATNQPPKIFVAHSKFVILSAHKLVFIGDTLSRQAKAADVRSQVTHYSNLLCDLLRGIVATTKAAALQYPSPSAAQDMVERVKELGHSTQQFRRVLGQLAAA

Key:
[1] = target: T1, Gimap5 (GTPase of immunity-associated protein 5), over-expressed from pcDNA3.1-Gimap5/3×Flag-EGFP (human); assay: affinity purification with mass spectrometry; Co-IP with rabbit anti-Gimap5 (10 μg) and Protein A-Agarose from lysates of Beas-2b and PC9 cells with Gimap5 overexpression (50mM Tris HCl pH7.4, 150mM NaCl, 1mM EDTA, 1% Triton X-100); tandem mass spectrometry
[2] = target: M6PR (mannose 6-phosphate receptor) (human (endogenous in Beas-2b and PC9)); assay: affinity purification with mass spectrometry; secondary immunoprecipitation: rabbit-anti M6PR (10 μg) added to the immunoprecipitate of Gimap5 from Beas-2b and PC9 cells; Protein A-Agarose; tandem mass spectrometry

Molecule	binding [1]	binding [2]
M6PR (mannose 6-phosphate receptor) (human (endogenous in Beas-2b and PC9))	binds	
B1		binds

Results are given in words; binding and its absence hold for the method and conditions named. Binding seen in cells or lysates may run through a third protein. These calls come from enrichment with a bait or labelling near it, and not all partners need be listed. For some assays here: Tags and fused reporters may be left off the sequences shown.
